Construct, isoform or probe ends are uncertain for at least one entry. A weaker result is weaker than the reference pair of the same experiment. Where a protein sequence is shown, tags need not be part of it.

The target of this data set is T1, FOXA2 (immunoprecipitated from PCN-exposed NCI-H292 cells) (UniProt Q9Y261).
T1 sequence (looked up, limits assumed): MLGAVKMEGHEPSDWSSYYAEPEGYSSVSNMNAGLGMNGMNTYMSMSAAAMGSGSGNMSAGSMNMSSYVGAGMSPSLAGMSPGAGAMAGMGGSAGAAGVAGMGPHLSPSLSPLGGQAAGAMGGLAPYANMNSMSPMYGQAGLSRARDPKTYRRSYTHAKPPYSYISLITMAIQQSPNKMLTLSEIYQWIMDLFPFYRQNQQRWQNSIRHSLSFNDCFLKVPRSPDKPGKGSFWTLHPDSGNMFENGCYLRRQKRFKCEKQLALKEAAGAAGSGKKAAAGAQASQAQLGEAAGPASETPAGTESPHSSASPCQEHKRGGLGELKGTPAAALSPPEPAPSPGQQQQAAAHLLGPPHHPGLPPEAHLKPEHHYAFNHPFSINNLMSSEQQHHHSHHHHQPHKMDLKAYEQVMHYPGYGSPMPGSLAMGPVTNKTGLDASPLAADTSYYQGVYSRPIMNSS
Briefly: EMSA. The note with it: equal FOXA2 amount, 10 mM Hepes pH 7.9, 1 mM EDTA, 5 mM MgCl2, 10% glycerol, DTT (printed '0.5 m MDTT', probably 0.5 mM), 1 mg/ml BSA, 1 ug poly(dI-dC), 2.5 ug FOXA2, 20 min, native protein.

As to “CCTCCCCGAGAGCAAACACACGTGGCTGGA (double strand) [MUC5B promoter FOXA2 site probe]”, the binding result is “binds more weakly” (cells exposed to 1.6 ug/ml PCN) and “binds more weakly” (cells exposed to 6.25 ug/ml PCN).

Source of the values: paper PMC3765780, “Pyocyanin-induced mucin production is associated with redox modification of FOXA2”.
